{"source": "patent US20040086510A1", "key": {"[1]": {"molecular_target": "IRAP (55-82) bait: GAL4-DNA binding domain (GAL4-BD) fused to the polypeptide of amino acid residues 55 to 82 of insulin responsive aminopeptidase (IRAP), from pBAIT-2 (UniProt P04386)", "assay": "yeast two-hybrid, HIS3 reporter growth test"}, "[2]": {"molecular_target": "IRAP (55-82) bait: GAL4-DNA binding domain (GAL4-BD) fused to the polypeptide of amino acid residues 55 to 82 of insulin responsive aminopeptidase (IRAP), from pBAIT-2 (UniProt P04386)", "assay": "yeast two-hybrid, beta-galactosidase activity"}}, "note": "No constants are given. Whether binding was seen depends on the method and setting. Some results given as binding are weak or reduced against the parent protein; the word gives no strength. Where a sequence is shown, tags or fusion partners need not be part of it."}
{"binder": "MD25 prey: GAL4 transcription-activating domain (GAL4-AD) fused to the part of human very-long chain acyl-CoA dehydrogenase (VLCAD) downstream from the 36th … (protein, not shown: large carriers) ARRPYAGGAAQLALDKSDSHPSDALTRKKPAKAESKSFAVGMFKGQLTTDQVFPYPSVLNEEQTQFLKELVEPVSRFFEEVNDPAKNDALEMVEETTWQGLKELGAFGLQVPSELGGVGLCNTQYARLVEIVGMHDLGVGITLGAHQSIGFKGILLFGTKAQKEKYLPKLASGETVAAFCLTEPSSGSDAASIRTSAVPSPCGKYYTLNGSKLWISNGGLADIFTVFAKTPVTDPATGAVKEKITAFVVERGFGGITHGPPEKKMGIKASNTAEVFFDGVRVPSENVLGEVGSGFKVAMHILNNGRFGMAAALAGTMRGIIAKAVDHATNRTQFGEKIHNFGLIQEKLARMVMLQYVTESMAYMVSANMDQGATDFQIEAAISKIFGSEAAWKVTDECIQIMGGMGFMKEPGVERVLRDLRIFRIFEGTNDILRLFVALQGCMDKGKELSGLGSALKNPFGNAGLLLGEAGKQLRRRAGLGSGLSLSGLVHPELSRSGELAVRALEQFATVVEAKLIKHKKGIVNEQFLLQRLADGAIDLYAMVVVLSRASRSLSEGHPTAQHEKMLCDTWCIEAAARIREGMAALQSDPWQQELYRNFKSISKALVERGGVVTSNPLGF", "values": [{"measurement": "binding", "setting": "[1]", "result": "binds"}, {"measurement": "binding", "setting": "[2]", "result": "binds"}]}
